In the DeepSol protein solubility set:

Experiment: soluble on expression in E. coli; label from the status in PepcDB or PDB records

Sequence	soluble on expression in E. coli
MGHHHHHHSHGAIFLEGVTVKGVTQVTTQPKLGEVQQKCHQFCGWEGSGFPGAQPVSMDKQNIKLLDLKPYKVSWKADGTRYMMLIDGTNEVFMIDRDNSVFHVSNLEFPFRKDLRMHLSNTLLDGEMIIDRVNGQAVPRYLIYDIIKFNSQPVGDCDFNVRLQCIEREIISPRHEKMKTGLIDKTQEPFSVRNKPFFDICTSRKLLEGNFAKEVSHEMDGLIFQPTGKYKPGRCDDILKWKPPSLNSVDFRLKITRMGGEGLLPQNVGLLYVGGYERPFAQIKVTKELKQYDNKIIECKFENNSWVFMRQRTDKSFPNAYNTAMAVCNSISNPVTKEMLFEFIDRCTA	not soluble
MGHHHHHHSHMGKVFMTRTPKAIATKAKIDKWDLIKLKSFCIAKETSIQVNRQPTEREKIFAIYPSDKGQIQNLVYSCRSRNYKELKQIYQKKPINPIKKWAKRQARWLTSVITAPWEAKAGGSPELRSSRLKIQKLLNYSTKNIKISLAWWWAPIISATWEAEAGESLEPRRRRL	not soluble
MGHHHHHHSHPGEKSRYETSLNLTTKRFLELLSHSADGVVDLNWAAEVLKVQKRRIYDITNVLEGIQLIAKKSKNHIQWLGSHTTVGVGGRLEGLTQDLRQLQESEQQLDHLMNICTTQLRLLSEDTDSQRLAYVTCQDLRSIADPAEQMVMVIKAPPETQLQAVDSSENFQISLKSKQGPIDVFLCPEETVG	not soluble
MGHHHHHHSHTLVEREVDITLPTDFGTFKVYGYTNEVDGKEHVAFVMGDVPFGEEPVLVRVHSECLTGDVFGSHRCDCGPQLHAALNQIAAEGRGVLLYLRQEGRGIGLINKLKAYKLQEQGYDTVEANEALGFLPDLRNYGIGAQILRDLGVRNMKLLTNNPRKIAGLEGYGLSISERVPL	soluble
MGKKQNKKKVEEVLEEEEEEYVVEKVLDRRVVKGKVEYLLKWKGFSDEDNTWEPEENLDCPDLIAEFLQSQKTAHETDKSEGGKRKADSDSEDKGEESKPKKKKEESEKPRGFARGLEPERIIGATDSSGELMFLMKWKNSDEADLVPAKEANVKCPQVVISFYEERLTWHSYPSEDDDKKDDKN	soluble
MGSSHHHHHHSSGRENLYFQGHMSQYKTGLLLIHPAVTTTPELVENTKAQAASKKVKFVDQFLINKLNDGSITLENAKYETVHYLTPEAQTDIKFPKKLISVLADSLKPNGSLIGLSDIYKVDALINGFEIINEPDYCWIKMDSSKLNQTVSIPLKKKKTNNTKLQSGSKLPTFKKASSSTSNLPSFKKADHSRQPIVKETDSFKPPSFKMTTEPKVYRVVDDLIEDSDDDDFSSDSSKAQYFDQVDTSDDSIEEEELIDEDGSGKSMITMITCGKSKTKKKKACKDCTCGMKEQEENEINDIRSQQDKVVKFTEDELTEIDFTIDGKKVGGCGSCSLGDAFRCSGCPYLGLPAFKPGQPINLDSISDDL	soluble
MITGIQITKAANDDLLNSFWLLDSEKGEARCIVAKSGFAEDEVVAVSKLGEIEYREIPMEVKPEVRVEGGQHLNVNVLRRETLEDAVKHPEKYPQLTIRVSGYAVRFNSLTPEQQRDVIARTFTESL	not soluble
MKKIVLLSLFALCLPLLVMAQSNNDDLYFVPSKEKKQEAKKTPVKKEPEKKVVTTNIYTSPGTTVVVQDRKGNKRDMRDVDEYNRRYDAKDNEFAMEDDTLYVKEKAVSDPDGEWVNGFNGSQDDYEYAERIIRFRNPRFAVSISSPLYWDIVYGTNSWDWNVYTDGFYAYAFPTFTNRLWWDWRYNSYGSGWGWGWGWSSPYYAWGGYYPGYWGGYWGGYWGGWYGGGYWGHHHHYHPGWGGGGSWAGRYNTYTRRGSSAVRSSYGNSSTVRRYSSGAVRSNSGSSVRSSATSSYNRGESSARRVIGTRVVGERPGSTTRTDASSSRRSTYTRPSSTRSSSSYEGTRGGSTTTGSPSYSEGGRRASTRSSSTYTRGSSTAPSRSYNESTTRRSYNSTPSRSSSSSTRSYSSPSGSSSRSYSTGGGGGSSRSSGGGGGSSRGRR	not soluble
MLRAASNGLRNTVAARSVSLSAANHSDAKRSDIAQYKVVDHAYDAVVVGAGGAGLRAAMGLAEGGLKTAVITKLFPTRSHTVAAQGGINAALGNMNPDNWRWHFYDTVKGSDWLGDQDAIHYMTREAERAVIELENYGMPFSRTTDGKIYQRAFGGQSNDFGRGGQAHRTCCVADRTGHSLLHTLYGASLQYNCNYFVEYFALDLIMENGVCVGVIAMDLEDGTIHRFRSKNTVLATGGYGRAFFSCTSAHTCTGDGTALTARAGINNSDMEFVQFHPTGIYGAGCLITEGSRGEGGYLVNSAGERFMERYAPNAKDLASRDVVSRSMTVEIMEGRGVGPDKDHIYLQLHHLPAEQLQQRLPGISETAMIFAGVDVTKEPIPVIPTVHYNMGGVPTNYKGQVLNYTPKKGDEVVPGLYAAGECGAHSVHGANRLGANSLLDLVIFGRACAIDILKNTSAGVGVPELPKNAGEASVANIDKLRHNKGDISTAELRLTMQKSMQNHAAVFRRGDILKEGVKVLSKLYKDQAHLNVADKGLVWNSDLIETLELQNLLINATQTIVAAENREESRGAHARDDFPDRLDELDYSKPLEGQTKKELKDHWRKHSIIRSNIETGEVSLDYRPVIDTTLDKSETDWVPPKVRSY	not soluble
MPPCYPTMTVDQTTGAVTNQTEISWHSINWAKANREVKRLQVRIAKAVKEGRWGKVKALQWLLTHSFYGKALAVKRVTDNSGSKTPGVDGITWSTQEQKTQAIKSLRRRGYKPQPLRRVYIPKANGKQRPLGIPTMRDRAMQALYALALEPVAETTADRNSYGFRRGRSTADAAGQCFITLARADSATYVPDADISGCFDNISHEWLLANIPLDKEILRKWLKSGFVWKQQLFPTHAGTPQGGVISPILANMALDGMEELLNEALQKSQSPSHLEHHHHHH	not soluble
MQEGDEELYFHFKFPGTKTYIDPETYEDPNRAVHQFAKELDASCIKIERVIGAGEFGEVCSGRLKLPGKRDVAVAIKTLKVGYTEKQRRDFLCEASIMGQFDHPNVVHLEGVVTRGKPVMIVIEFMENGALDAFLRKHDGQFTVIQLVGMLRGIAAGMRYLADMGYVHRDLAARNILVNSNLVCKVSDFGLSRVIEDDPEAVYTTTGGKIPVRWTAPEAIQYRKFTSASDVWSYGIVMWEVMSYGERPYWDMSNQDVIKAIEEGYRLPAPMDCPAGLHQLMLDCWQKERAERPKFEQIVGILDKMIRNPNSAHHHHHH	soluble
MRKALITGASRGIGRAIALRLAEDGFALAIHYGQNREKAEEVAEEARRRGSPLVAVLGANLLEAEAATALVHQAAEVLGGLDTLVNNAGITRDTLLVRMKDEDWEAVLEANLSAVFRTTREAVKLMMKARFGRIVNITSVVGILGNPGQANYVASKAGLIGFTRAVAKEYAQRGITVNAVAPGFIETEMTERLPQEVKEAYLKQIPAGRFGRPEEVAEAVAFLVSEKAGYITGQTLCVDGGLTPH	soluble
MRKTINCFIPYRESTAAEQTIHALKESSIVNKIYLLNIEPNKTLSTPEGCEILPVDSLTSSKTMKMIAEKADTPYILLYTKTSALELAYKALERMTDFLQDRECGMVYADHHEWKNGEKKKHPVNDYQPGSVRDDFDFGPLLIFNRTEFILASLQMTEEREYAALYELRLLLTLHSHLVHINEYLYTETESDNRLSGEKQFDYVNPRNREVQIEMEEAFTRYLKSINALLEPICVETDVKKGNFEYEASVIIPVRNRARTIDDAIRSALAQETRFPFNIIIVDNHSTDGTTEIIGQYKDNKAVIHLQPQRTDLGIGGCWDLAINHPRCGRFAIQLDSDDLYSDTHTLQTIVDTFYKEQCAMVIGTYRMTDFRLNTIAPGVIDHSEWTKENGHNNALRINGLGAPRAFFTPILRETGVPNVSYGEDYALGLIFSRQYKIGRIYDVLYLCRRWEGNSDAALSIEQTNANNHYKDSLRTRELGIRKKYTEELKNRNEIKRFIDSQLACWPLAHHNHEALQTIQTKELSINGYTFVVQCNAQRAVSTTAKVDKDSIQARPCFLCKENQPKEQKALETITANRICVNPYPILPDHLTIAHKDHIPQLMDENIFSYDDVRAFVQKYPDYALFYNGAHCGASAPDHLHLQGVRKTDVPIIPNVQQLITHAQTIDIRSMYFPYLEEEEDYPLECSRIYLNTKDYPCPLVILSSNTHYDDSLLYSALAAFPPDEDGQEAKFNLLLWKEGHLYYTVVFPRSKHRPDCYFAEGSEQMLISPGALDMAGVIVTTRQEDFDKITEEKVASIIKEVGITVEEAEKIPGRYFDEKAKR	not soluble
MSGEVWRWNKQAEMNSIRDCLKHCNSIAIDTEFPGCLKETPMDASDEIRYRDMKFNVDNTHLIQLGLTLFGKGITKTWEINLSDFNESKSLKNDKSIAFLKNNGLDLDKIREEGIGIEEFFMEFSQILNEKHGKMRWVTFQGSYDKAYLLKGLTRKPLPETSKEFDETVQQLLGRFVYDVKKMAGLCSGLSSRFGLQRIADVLQMRRVGKAHHAGSDSELTARVFTKLIFDLVNSRKESTGRRADDQQYQLEQQQHQQQLMMTRCYIPIPVQGRNYVL	soluble
MSLHLGHSLEAMAKEAESKGKIYEKILRALKAGESKGGDRRGKQSAAIIVVKTVDKSEKEIDPLIVGKYVDLRVDDSQDPLKDLERLLDLWVATFIEEEMVNVKDYENQIRQALNKWGYNDLRTWVEMNNLEGKYTGDKIGKTVLKILLSKEEGHHHHHH	soluble
MSLKSRHDKAINGAKISASSILENARKESETLKKEALLEAKEENQKYRSEIESELKESRLELKSQENRLIQREQTLDRKDDSLEKREGSLEEKEEKLGARQQLIDEREKEVENLINQQHQELERIASLSKEEAKSIIMKSTEEELNHELTLMVKESEQRAKEESDRKAKNLLSLAIQRCAADSVSETTVSVVTLPNDEMKGRIIGREGRNIRTLETLTGIDLIIDDTPEAVVLSGFDPIRREIARMTLEKLIQDGRIHPARIEEMVEKSRKEMDERIREYGEQAAFEVGAHTLHPDLIKILGRLRFRTSYGQNVLNHSIEVAKLAGVLAAELGEDVQLAKRAGLLHDIGKALDHEIEGSHVEIGAELAAKYKENSVVINAIASHHGDVEATSVISVLVAAADALSAARPGARSESLENYIRRLENLENISNSFEGVDSSFAVQAGREVRVMVKPEEISDLESVRLVRDIRKKIEDDLDYPGHIKVTVIRETRAVDYAKEGHHHHHH	soluble
MSLSPQRDARLPVTVLSGFLGAGKTTLLNRILHNRDGLRVAVIVNDMSEVNIDAQLVREGGAALRRTEETLVEFSNGCICCTLRDDLLQEVRRLAEQGRYDYLLIESTGIAEPMPVAATFAVRDADGFSLSDIARLDTMVTVVDGSRFLEDFGSAATLADLGQQAGPDDTRGLVQLLGEQVEFADVLVISKCDRIDAQQLQRLRAVLRALNRDAAIVDAAHGEVPLQQLLDTGRFDFTRAQLAPGWMQELRGQHTPETEEYGISSFVYRARRPFHPQRFARMVHSGLPQVIRSKGFFWLASRMDWVGELSSVGGATQTSAAGFWFAARHRVDAQAVGQPLQTSITPLPYTDIGWQRQQTQCWTAPLPQPHEVGDASEYAAMQRLWHPLWGDRRQELAVIGVDMDAPRTRAVLDACLLSDQELRQGPAQWQLLDDPFPHWARLEHHHHHH	not soluble
MSSLMAIRCARTQNIVTIGSLLQLRSSFPRLSSQFHFSGTLNSIPIKHLSTSAAANDYHQNPQSGSPSQHQRPYPPQSFDSQNQTNTNQRVPQSPNQWSTQHGGQIPQYGGQNPQHGGQRPPYGGQNPQQGGQMSQYGGHNPQHGGHRPQYGGQRPQYGGPGNNYQNQNVQQSNQSQYYTPQQQQQPQPPRSSNQSPNQMNEVAPPPSVEEVMRLCQRRLYKDAIELLDKGAMPDRECFVLLFESCANLKSLEHSKKVHDHFLQSKFRGDPKLNNMVISMFGECSSITDAKRVFDHMVDKDMDSWHLMMCAYSDNGMGDDALHLFEEMTKHGLKPNEETFLTVFLACATVGGIEEAFLHFDSMKNEHGISPKTEHYLGVLGVLGKCGHLVEAEQYIRDLPFEPTADFWEAMRNYARLHGDIDLEDYMEELMVDVDPSKAVINKIPTPPPKSFKETNMVTSKSRILEFRNLTFYKDEAKEMAAKKGVVYVPDTRFVLHDIDQEAKEQALLYHSERLAIAYGIICTPPRKTLTIIKNLRVCGDCHNFIKIMSKIIGRVLIVRDNKRFHHFKDGKCSCGDYW	not soluble
